PubChem BioAssay AID1224830 – NIAID – 2016

Test: 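Regulators of TLR4 signalling towards TNF-alpha in macrophage-like cells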 (primary screen)
Cells: human THP-1 monocytic leukaemia cells, TNF dual-luciferase reporter clone, PMA-differentiated to macrophage-like cells
Reagent: siRNA pool against human genes, 50 nM
Timing: LPS for 4 h, given about 3 days after siRNA transfection
Conditions: bacterial LPS (TLR4 ligand), 10 ng/ml
Measurement: 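Ratio of firefly to renilla light, scaled to the plate median and expressed as a robust z-score per replicate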
Reading the numbers: TNF reporter robust z-score: higher = stronger TNF reporter response to LPS
Call rule: 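a well is active when its z-score exceeds 2.8 or falls below -1.5; control wells carry no call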
In all, the deposit lists about 18,000 reagents; shown is an unselected part. About 2,900 of them (16%) count as active. 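Calls are made per well; low scores hint the gene aids the LPS response, high scores that it dampens it.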 Entries without a mark were called inactive. Repeated entries: four replicate wells of each siRNA pool.

gene | TNF reporter robust z-score
SMTN | -1.01
SMTN | -0.54
SMTN | -0.62
SMTN | 0.64
GRXCR2 | 1.16
GRXCR2 | 0
GRXCR2 | -0.23
GRXCR2 | 0.19
ICA1L | -0.56
ICA1L | 0.13
ICA1L | -0.99
ICA1L | -0.64
RBFA | 0.55
RBFA | 1.1
RBFA | -0.79
RBFA | 0.1
MMS19 | 0.46
MMS19 | -0.5
MMS19 | 0.77
MMS19 | -0.34
UNCX | 1
UNCX | 0.75
UNCX | -0.65
UNCX | 0.22
DCTPP1 | 0
DCTPP1 | -1.28
DCTPP1 | -0.99
DCTPP1 | 0.28
ARTN | 3.23 (active)
ARTN | 2.67
ARTN | 2.98 (active)
ARTN | 2.45
TRIM40 | 3.16 (active)
TRIM40 | 1.7
TRIM40 | 0.34
TRIM40 | 0.14
QDPR | 0.87
QDPR | 1.46
QDPR | 1.34
QDPR | 2.07
SDCCAG8 | -1.25
SDCCAG8 | 2.3
SDCCAG8 | 0.23
SDCCAG8 | 0.88
ACTR5 | -0.89
ACTR5 | 1.29
ACTR5 | 0.41
ACTR5 | 0.26
SEPTIN2 | 0.2
SEPTIN2 | 0.14
SEPTIN2 | -0.03
SEPTIN2 | 0.76
TOE1 | -0.28
TOE1 | 0.21
TOE1 | 1.82
TOE1 | 2.01
MUC17 | -0.02
MUC17 | 0
MUC17 | -0.15
MUC17 | -0.56
FERMT3 | -0.04
FERMT3 | -0.25
FERMT3 | -0.47
FERMT3 | -0.76
NCAPG | 1.78
NCAPG | -0.51
NCAPG | 0.4
NCAPG | 2.37
TSSK2 | -0.69
TSSK2 | 1.47
TSSK2 | -0.65
TSSK2 | -0.63
UGP2 | 1.32
UGP2 | 0.22
UGP2 | -0.72
UGP2 | 0.64
FAM184A | 0.23
FAM184A | 0.42
FAM184A | -0.11
FAM184A | -0.22
OTOGL | -0.03
OTOGL | -0.44
OTOGL | -0.47
SLC35F1 | 0.11
SLC35F1 | -0.16
SLC35F1 | 0.62
SLC35F1 | -1.05
FBXO32 | -0.78
FBXO32 | 0.34
FBXO32 | -1.8 (active)
FBXO32 | -0.35
USP4 | 0.18
USP4 | 2.42
USP4 | 0.53
ASPHD2 | 0.23
ASPHD2 | 0.41
ASPHD2 | 2.42
ASPHD2 | 1.25
CAP1 | 2.74
CAP1 | -0.09
CAP1 | -0.67
CAP1 | -0.38
NR4A1 | -1.81 (active)
NR4A1 | -1.62 (active)
NR4A1 | -1.94 (active)
NR4A1 | -1.87 (active)
CCDC185 | -0.95
CCDC185 | -1.23
CCDC185 | -0.44
SERPINH1 | -0.13
SERPINH1 | 0.12
SERPINH1 | -0.34
SERPINH1 | 0.47
